The term AC50 denotes the midpoint of the concentration-response curve, whichever way the signal moves.

Each structure is given as a SMILES string. Some of the results follow. Shown are side measurements of this screen, not its main read-out; they come without a call. The list favours compounds with an active or inconclusive main result. Words in brackets tell the shape of the fitted curve; partial curves, single points and poor fits give uncertain potencies.

The nature of the assay: Cell signaling CRE-BLA (Fsk stim). The following applies: CHO CRE-bla reporter (cAMP response element driving beta-lactamase), forskolin EC10, beta-lactamase ratio; measured here: 460 nm blue channel. In short, it runs like this:
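The 460nm/530nm emission ratio after CCF4 loading defined %Activity, from which AC50 values were obtained. CRE-bla CHO cells received compound dilution series together with an EC10 level of NKH 477 for 3 hours at 37 degrees Celsius.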
`CCn1c(SCC(=O)NCCOC)nc2sc(C)c(C)c2c1=O`: the AC50 is 10 µM [rising, partial curve].
Next, `Cc1noc(C)c1-c1nccc(N(C)C)n1`: 25.1 µM [rising, partial curve]; `COc1cccc(C(=O)OCC(=O)Nc2ccccc2N2CCOCC2)c1`: 25.1 µM [rising, single point].
As to `CCC(=O)Nc1ccc(S(=O)(=O)N2CCc3ccccc3C2)cc1`, the AC50 was 3.16 µM [falling, full curve].
Next, `Cc1nc2ccccc2c2nc(NC(=O)Cc3ccccc3)nn12`: 10 µM [rising, partial curve]; `NCCOB(c1ccccc1)c1ccccc1`: 25.1 µM [falling, partial curve, poor fit]; `CCOc1ccccc1Oc1c(C)oc2c(CN3CCN(C)CC3)c(O)ccc2c1=O`: 5.01 µM [falling, single point].
In the case of `O=C(CSc1nnc(-c2ccc(Cl)cc2)n1Cc1ccco1)c1cccs1` it was 20 µM [falling, single point].
Next, `COc1cccc(Cn2c(=O)c(-c3cccs3)nc3cnc(OC)nc32)c1`: 5.01 µM [rising, partial curve]; `CN(C)CCCNc1oc(-c2ccc(Cl)cc2)nc1C#N`: 25.1 µM [rising, single point].
With `CN1/C(=C\C(=O)COC(=O)C2COc3ccccc3O2)C(C)(C)c2ccccc21` (stereo not drawn), the AC50 is 10 µM [rising, single point].
Next, `O=C(Cc1cc(=O)[nH]c(=O)[nH]1)N1CCC(Cc2ccccc2)CC1`: 7.94 µM [rising, partial curve]; `CCCCC[C@H](O)/C=C\[C@@H]1[C@H](O)CC(=O)[C@@H]1CCCCCCC(=O)O`: 0.00126 µM [rising, full curve, poor fit]; `O=C(NCc1cccs1)Nc1cccs1`: 0.00316 µM [falling, full curve, poor fit].
In the case of `Cc1ccc(-c2noc(CCC(=O)NCCCN3CCN(c4cccc(Cl)c4)CC3)n2)cc1` it was 12.6 µM [falling, partial curve]; in that of `COc1ccc(NC(=O)c2cc(=O)c3ccccc3o2)cn1`, 3.16 µM [rising, partial curve]; in that of `CC(=O)N1CCN(c2nc3cc4c(cc3nc2NS(=O)(=O)c2ccccc2)OCCO4)CC1`, 10 µM [rising, partial curve].
With `COc1nc(N(C)C)nc(-n2nnc(C(C)=O)c2C)n1`, the AC50 is 12.6 µM [rising, partial curve].
For `COc1cc(N)c(Cl)cc1C(=O)N[C@H]1CCN(CCCOc2ccc(F)cc2)C[C@@H]1OC`, the AC50 was 0.01 µM [rising, full curve, poor fit].
As to `COc1ccc(OC)c(Nc2nc(N)nc(-c3cc4ccccc4o3)n2)c1`, the AC50 was 10 µM [rising, partial curve].
In the case of `CC1CCN(S(=O)(=O)c2ccc3c(c2)oc(=O)n3CC(=O)NCc2ccc3c(c2)OCO3)CC1` it was 10 µM [falling, partial curve]; in that of `CCc1nc2c(c(=O)[nH]1)C1(CCCC1)Cc1ccccc1-2`, 12.6 µM [rising, partial curve].
Next, `O=C(/C=N/O)Nc1ccccc1`: 3.98 µM [falling, single point].
Consider `O=C(CSc1nc(-c2ccccc2Cl)ns1)NCc1ccco1`, for which the AC50 is 0.00794 µM [falling, full curve].
Next, `O=C(c1ccc(CSCc2ccccc2F)o1)N1CCN(c2ccc(N3CCOCC3)nn2)CC1`: 2 µM [rising, partial curve].
Next, `CCc1ccc(-c2nc(CN3CCC(C(=O)NCCc4ccc(OC)c(OC)c4)CC3)c(C)o2)cc1`: 2.51 µM [falling, full curve]; `CCc1nc2ccccc2n1Cc1ccc(OC)c(OC)c1`: 12.6 µM [rising, partial curve]; `CC(C)NC(=O)N1CC[C@@]2(CCCN(S(=O)(=O)c3ccccc3)C2)C1`: 0.00316 µM [rising, full curve, poor fit].
For `CCCn1nc(CC(=O)O)c2ccccc2c1=O`, the AC50 is 5.01 µM [falling, single point].
For the compound `COC(=O)c1ccc(COc2ncnc3c(Cl)cc(Cl)cc23)o1`, the AC50 is 6.31 µM [rising, partial curve].
For `Cc1ccc(S(=O)(=O)/N=C(\CN2CCCCC2)N2CCOCC2)cc1`, the AC50 is 0.251 µM [rising, partial curve, poor fit].
Regarding `COc1ccc(C(=O)NC(C)c2nc3ccccc3[nH]2)cc1OC` (stereo not drawn), the AC50 is 10 µM [rising, partial curve].
In the case of `Cc1cccc(C)c1NC(=O)Cn1c(=O)n(CCCC(=O)NCc2ccco2)c(=O)c2sccc21` it was 0.0251 µM [falling, full curve, poor fit].
Next, `COc1cc2c(cc1NC(=O)c1ccc3c(c1)OCO3)oc1ccccc12`: 5.01 µM [falling, partial curve].
In the case of `O=C(CN(Cc1ccc2c(c1)OCO2)C(=O)CNS(=O)(=O)c1ccccc1)NCC1CCCO1` (stereo not drawn) it was 0.00316 µM [falling, full curve]; in that of `Cc1ccc(S(=O)(=O)c2cc3c(=O)n4cccc(C)c4nc3n(Cc3ccco3)c2=N)cc1C`, 10 µM [rising, partial curve].
On to `O=C1CCCN1CCCN1C(=O)N[C@@H](Cc2ccccc2)C1=O`, for which the AC50 is 0.00316 µM [falling, full curve, poor fit].
Next, `CN(C)c1ncc2ncc(=O)n(Cc3cccs3)c2n1`: 10 µM [rising, partial curve].
Next, `COc1cccc(-n2c(COc3ccc(C)cc3)nnc2SCC(=O)O)c1`: 12.6 µM [falling, partial curve]; `CCOC(=O)N1CCN(C(=O)c2cccn3c(=O)c4sccc4nc23)CC1`: 12.6 µM [rising, single point]; `CCN1C(=O)CSC1=NC1C2CC3CC(C2)CC1C3` (stereo not drawn): 12.6 µM [rising, single point].
Next, `O=C(NCCc1ccccc1)C(c1cccs1)N(C(=O)c1csnn1)C1CC1` (stereo not drawn): 1.26 µM [falling, partial curve]; `Cc1cc(C(=O)OCC(=O)c2ccc3c(c2)OCCO3)c(C)o1`: 0.158 µM [falling, full curve, poor fit].
For `O=C(NCCc1ccccc1)C1c2ccccc2C(=O)N1C1CC1` (stereo not drawn), the AC50 is 25.1 µM [falling, partial curve].
In the case of `CCOCCCn1c(=N)c(C(=O)Nc2cc(C)on2)cc2c(=O)n3ccccc3nc21`, the AC50 is 1.58 µM [rising, full curve].
For `COc1cccc(Cn2c(=O)c(-c3cccs3)nc3cnc(Nc4cccc(OC)c4)nc32)c1`, the AC50 was 2.51 µM [rising, full curve].
On to `COc1ccc(CCNC(=O)c2cc3c(=O)n4cccc(C)c4nc3n(Cc3ccncc3)c2=N)cc1`, for which the half-maximal activity concentration (AC50) was 10 µM [rising, partial curve].
With `O=C(c1ccc(S(=O)(=O)N2CCOCC2)cc1)N1CCc2ccccc2C1`, the AC50 is 2.51 µM [falling, single point].
In the case of `CCOC(=O)N1CCN(C(=O)CCCn2nc(C)c3sc4ccccc4c3c2=O)CC1` it was 10 µM [rising, partial curve]; in that of `Cc1ccccc1-c1nccc(NCc2cccnc2)n1`, 0.398 µM [rising, full curve, poor fit].
Next, `COc1ccc(OC)c(Nc2ncnc3c2cnn3-c2ccccc2)c1`: 12.6 µM [rising, single point]; `CCOc1cc(Br)c(C(=O)O)cc1OCC`: 10 µM [falling, partial curve].
Turning to `CCCOc1ccccc1-c1nc2c([nH]1)c(=O)[nH]c(=O)n2C`, the AC50 was 12.6 µM [rising, partial curve].
As for `Cc1[nH]c(=O)[nH]c(=O)c1NS(=O)(=O)c1ccc2c(c1)CCCC2`, the AC50 was 25.1 µM [rising, single point].
Turning to `c1cncc(-c2cccnc2)c1`, the half-maximal activity concentration (AC50) was 31.6 µM [falling, single point].
In the case of `Oc1[nH]c2ccccc2c1/C=N/c1nccs1` it was 0.631 µM [falling, full curve]; in that of `COCCNC(=O)c1cc2c(=O)n3cccc(C)c3nc2n1C`, 1.26 µM [rising, partial curve]; in that of `Cc1ccc(C)c(Nc2ncnc3nc[nH]c23)c1`, 12.6 µM [rising, partial curve].
`CCSc1nc2c(c(=O)[nH]c(=O)n2C)n1C`: the AC50 is 20 µM [rising, single point].
In the case of `Cc1cccc(N2C(N)=C(C#N)C(C#N)(C#N)C2c2ccccc2)c1` (stereo not drawn) it was 10 µM [rising, partial curve]; in that of `O=C(Nc1ccc(Cl)cc1)N(Cc1cccs1)Cc1cccs1`, 25.1 µM [falling, single point].
Next, `Cc1cc(Cl)cc(C)c1OCC(=O)O`: 3.98 µM [falling, partial curve]; `COc1ccc(NC(=O)CN2CCC(n3c(C)nc4cc(F)ccc43)CC2)c(OC)c1`: 7.94 µM [rising, partial curve]; `COC(=O)C1=C(Cn2cnc3ccccc32)NC(=O)NC1c1cc(C)ccc1C` (stereo not drawn): 12.6 µM [falling, single point].
In the case of `CCCCn1c(Oc2ccc(C(=O)OC)cc2)nc2c1c(=O)n(C)c(=O)n2C` it was 0.2 µM [falling, full curve].
As for `CCOC(=O)C(CC)Sc1nc2c(c(=O)[nH]c(=O)n2C)n1C/C=C(/C)Cl` (stereo not drawn), the half-maximal activity concentration (AC50) is 20 µM [rising, single point].
With `O=C(c1n[nH]c2ccccc12)N1CCN(S(=O)(=O)c2ccc3ccccc3c2)CC1`, the AC50 is 10 µM [falling, single point].
Next, `CCOC(=O)c1oc2ccccc2c1NC(=O)COC`: 10 µM [rising, partial curve].

The record behind these values is PubChem BioAssay AID662 (National Center for Advancing Translational Sciences (NCATS), 2007).
